For this data set, the target named is T1, Orb2-RRM (GST-Orb2 C-terminus) (UniProt Q9VSR3).
T1 sequence (looked up, limits assumed): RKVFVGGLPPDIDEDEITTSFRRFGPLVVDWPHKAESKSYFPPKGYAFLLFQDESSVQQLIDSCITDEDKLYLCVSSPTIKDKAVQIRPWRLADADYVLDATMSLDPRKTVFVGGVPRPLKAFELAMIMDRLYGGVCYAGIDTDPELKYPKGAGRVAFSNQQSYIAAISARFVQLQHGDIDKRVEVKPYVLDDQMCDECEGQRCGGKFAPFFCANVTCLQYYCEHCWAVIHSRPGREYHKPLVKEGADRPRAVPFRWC
The experiment in a line: EMSA. The note with it: labeled 24 nt oligo as probe, equivalent results; 25 mM Tris pH 7.5; recombinant protein; protein details: GST. A general note: A gel shift assay detects complexes by their altered migration in electrophoresis.

The exact form of at least one protein or probe is not confirmed. At least one verdict rests on a figure or table, not on a statement of the authors. Protein sequences can lack the tags named with them.

For “ACUUUUGUUUUUAAUGCAUUCCAC [Comp-CPE (competitor A)]”, the binding result is “binds”.

Source of the values: PMC4022466, “Spermatid Cyst Polarization in Drosophila Depends upon apkc and the CPEB Family Translational Regulator orb2”.
